Values from PubChem BioAssay AID720505 (Drosophila RNAi Screening Center, 2013).
In all, the deposit lists about 20,000 reagents; shown is a random part of those with a known target gene and a result. Over the whole deposit, about 2,100 (10%) were called active. 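Raw plate signals without normalisation; calls rest on control-based scores that were not deposited; replicate 2 separates called from uncalled poorly.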 The numbers tell different reagents against one gene apart. Names joined by + are all predicted targets of the reagent. Not given: the amount of reagent, the time to read-out.

Test: 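Fly regulators or components of the CRAC channel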 (primary screen)
System: Drosophila S2R+ cells
Knock-down reagent: long dsRNA against Drosophila genes
Conditions: thapsigargin (2 µM) in calcium-free buffer to empty internal stores, then 2 mM calcium added back
Detection: 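Stores emptied by 2 µM thapsigargin without calcium, then 2 mM calcium re-added; fluo-4 fluorescence followed by FLIPR in 384-well plates, per-well averaged endpoint, raw; two screen passes, some wells retested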
Reading the numbers: calcium signal and retest calcium signal: higher = more calcium entry after store depletion
Rule for the call: 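About 1500 genes called as lowering calcium entry, by varying amounts, judged against per-plate control wells with STIM1 as positive and Rho1 as negative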
Calls: active = called as lowering calcium entry; inactive = not called

no.	gene	reagent no.	calcium signal, replicate 1	calcium signal, replicate 2	retest calcium signal, replicate 1	retest calcium signal, replicate 2	outcome
1	alpha-Est1 (alpha-Esterase-1)	1	92.7	115			inactive
2	Dcr-2 (Dicer-2)	1	156	149			inactive
3	CG31301	1	88.9	185			inactive
4	CG14566	1	127	183			inactive
5	MED25 (Mediator complex subunit 25)	1	143	211			inactive
6	MED25 (Mediator complex subunit 25)	2	102	91.4			inactive
7	Polr2I (RNA polymerase II subunit I)	1	73.7	51.4			active
8	CG9550	1	86.2	118			inactive
9	Ipk2 (Inositol phosphate kinase 2)	1	115	138			inactive
10	CG32813	1	90.8	109			inactive
11	CG14422	1	109	142			inactive
12	CG15536	1	147	130	13838	177	inactive
13	CG15536	2	95.5	108			inactive
14	E(spl)m8-HLH (Enhancer of split m8, helix-loop-helix)	1	221	155			inactive
15	Nup54 (Nucleoporin 54kD)	1	179	203			inactive
16	CG14891	1	239	312			inactive
17	CG3558	1	105	271			inactive
18	Rsbp15 (Radial spoke binding protein 15)	1	72.2	133			active
19	CG5334	1	89.5	102			inactive
20	Rcd2 (Reduction in Cnn dots 2)	1	85.6	142			inactive
21	Sec61alpha (Sec61 alpha subunit)	1	91	214			inactive
22	CG34163	1	112	96.1			active
23	Lcp65Af	1	91.7	68			inactive
24	NimB5 + He	1	97.8	160			inactive
25	CG30325	1	87	86.7			active
26	Nepl15 (Neprilysin-like 15)	1	163	264			inactive
27	CG11668	1	89.7	119			inactive
28	CG7920	1	118	193			inactive
29	CG7920	2	112	92.2			inactive
30	AsnRS-m (Asparaginyl-tRNA synthetase, mitochondrial)	1	196	139			inactive
31	bves	1	66.4	159			active
32	bves	2	76.7	148			active
33	bves	3	173	98.6			inactive
34	Art4 (Arginine methyltransferase 4)	1	168	77			inactive
35	CG13127	1	101	89.3			inactive
36	meng (meng-po)	1	154	89.8			inactive
37	Cyp6d5 (Cytochrome P450 6d5)	1	109	128			inactive
38	Tim8	1	83.8	83.2			inactive
39	Rbbp5 + CG6434 (retired record)	1	66.8	152			active
40	CG18469	1	82.5	81.1			inactive
41	AANATL3 (Arylalkylamine N-acetyltransferase-like 3)	1	84.5	127			inactive
42	Hug (Hugin)	1	158	122			inactive
43	CG4763	1	74	115			active
44	CG4763	2	113	186			inactive
45	DIP-theta (Dpr-interacting protein theta)	1	110	136	8547	153	inactive
46	DIP-theta (Dpr-interacting protein theta)	2	151	96.2			inactive
47	DIP-theta (Dpr-interacting protein theta)	3	143	89.5			inactive
48	Vap33 (VAMP-associated protein 33kDa)	1	107	89.1			inactive
49	CG32683	1	65.4	75.7			active
50	CG32683	2	67.9	85.3			inactive
51	CG32683	3	64.7	96.5			inactive
52	CG8366	1	97.9	95			inactive
53	I-3 (Inhibitor-3)	1	244	125			inactive
54	CG11350	1	64.3	56.6	84.7	104	inactive
55	nero	1	100	133			inactive
56	Dic1	1	104	84.3			inactive
57	Zw10 (Zeste-white 10)	1	118	118			inactive
58	Sec15 (Secretory 15)	1	90.4	164			inactive
59	CG13054	1	98.8	137			inactive
60	CG33695 + cana	1	159	77.1			inactive
61	CG33695 + cana	2	191	179			inactive
62	Sr-CI (Scavenger receptor class C, type I)	1	82.7	159			inactive
63	Nf-YA (Nuclear factor Y-box A)	1	41.8	74			active
64	Nf-YA (Nuclear factor Y-box A)	2	120	181			inactive
65	CG15019	1	71.7	77.8			inactive
66	Jarid2 (Jumonji, AT rich interactive domain 2)	1	113	130			inactive
67	CG31823	1	135	138			inactive
68	CG5003	1	110	91.8			inactive
69	CG34304 (retired record)	1					inactive
70	CG33768	1	106	138			inactive
71	CG12128 + CG1407	1	196	135			inactive
72	CG8701	1	213	129			inactive
73	CG44838	1	99.4	97.2			inactive
74	CG44838	2	95.6	103			inactive
75	PAN2 (Poly(A)-binding protein-dependent poly(A) ribonuclease 2)	1	108	146			inactive
76	mtDNA-helicase (mitochondrial DNA helicase)	1	169	146			inactive
77	CG17105	1	231	177			inactive
78	CG9286	1	91.5	88.5			inactive
79	Ypel (Yippee-like)	1	116	114			inactive
80	Nf1 (Neurofibromin 1)	1	99.9	132			inactive
81	asRNA:CR43476 + CG42534	1	93.7	145			inactive
82	TyrRII (Tyramine receptor II)	1	96.5	80.3			inactive
83	CG14089	1	80	110			inactive
